Results taken from article PMC10250230, “Negatively charged, intrinsically disordered regions can accelerate target search by DNA-binding proteins”.
Construct, isoform or probe ends are uncertain for at least one entry.

Protein sequences, listed by entry. Tags and fused reporters are not part of them. Lines headed by an entry give the natural chain unless they say otherwise; changes in a name come on top.
UniProt P02833: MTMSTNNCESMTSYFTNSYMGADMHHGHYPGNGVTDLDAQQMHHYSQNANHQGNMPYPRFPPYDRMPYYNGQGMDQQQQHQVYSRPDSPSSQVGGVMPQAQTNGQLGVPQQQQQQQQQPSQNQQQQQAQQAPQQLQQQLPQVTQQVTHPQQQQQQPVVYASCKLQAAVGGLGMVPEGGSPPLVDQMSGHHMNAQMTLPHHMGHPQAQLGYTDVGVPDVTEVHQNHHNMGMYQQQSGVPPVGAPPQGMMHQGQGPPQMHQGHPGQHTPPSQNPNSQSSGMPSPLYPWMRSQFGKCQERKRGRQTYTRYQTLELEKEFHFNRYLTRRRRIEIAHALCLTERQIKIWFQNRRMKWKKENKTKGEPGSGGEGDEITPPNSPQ

Columns and labels:
Assay in all cases: stopped-flow fluorescence anisotropy
Antp HD-DERT7 = Antp HD-DERT7 (UniProt P02833); conditions: 4 uM 15-bp decoy DNA, association faster than Antp HD; Antp Kd: 20 mM potassium succinate pH 5.8, 0.4 mM NaF, 200 mM KCl; HMGB1: 10 mM K phosphate pH 7.5, 1 mM DTT, 1 mM MgCl2, 100 mM KCl, 25 C; recombinant protein; label: 5' FAM
Antp HD-DERT16 = Antp HD-DERT16 (UniProt P02833); conditions: 4 uM 15-bp decoy DNA, association slower than Antp HD; Antp Kd: 20 mM potassium succinate pH 5.8, 0.4 mM NaF, 200 mM KCl; HMGB1: 10 mM K phosphate pH 7.5, 1 mM DTT, 1 mM MgCl2, 100 mM KCl, 25 C; recombinant protein; label: 5' FAM
Antp HD-DERT11 = Antp HD-DERT11 (UniProt P02833); conditions: 4 uM 15-bp decoy DNA, association faster than Antp HD; Antp Kd: 20 mM potassium succinate pH 5.8, 0.4 mM NaF, 200 mM KCl; HMGB1: 10 mM K phosphate pH 7.5, 1 mM DTT, 1 mM MgCl2, 100 mM KCl, 25 C; recombinant protein; label: 5' FAM
[1] = biological target: Antp HD (control without DERT; Antp HD-MID) (UniProt P02833); conditions: 4 uM 15-bp decoy DNA; Antp Kd: 20 mM potassium succinate pH 5.8, 0.4 mM NaF, 200 mM KCl; HMGB1: 10 mM K phosphate pH 7.5, 1 mM DTT, 1 mM MgCl2, 100 mM KCl …; recombinant protein; label: 5' FAM

Measured: binding result

AGCCATTACAGTGTACGCACGTACGGTGCACGA (double strand) [FAM-labeled 33-bp Antp target DNA]
binds: all assays above
